According to PubChem BioAssay AID2685 (National Center for Advancing Translational Sciences (NCATS), 2010):
About 2,100 (0.66%) of roughly 320,000 compounds were called active. Inconclusive results, whose numbers are uncertain, are shown with a selection of clear calls. Calls follow the shape of the dose curve; as a rule, active = well fitted inhibition curve with a large enough effect in the signal ratio, with a control signal flat (not every such curve was filed as active); inconclusive = small, poorly fitted or top-dose-only effect, or effect the other way, or a change in a side signal; inactive = flat fitted curve, though single readings scatter; the % refers to the signal ratio. A potency beside an inconclusive call is a rough fit, not a confirmed value.

assay: qHTS Assay for Lipid Storage Modulators in Drosophila S3 Cells; settings: BODIPY lipid droplet fluorescence, 18-24 h, cells fed with added oleic acid; lipid storage change, negative = inhibition: at 46.1 µM (top of the series) unless noted
Summary of the method: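 Drosophila S3 cells got compounds at several concentrations plus oleic acid (400 uM solution). Laser-scanning cytometry with 488 nm excitation read lipid droplets at 500-530 nm and cells at 575-640 nm. Percent activity was relative to 20 uM Triacsin C.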
% is scaled to controls: 0 for no effect and ±100 for the full control effect; potency is read from the fitted curve at half-maximal effect.

SMILES	Potency	lipid storage change, negative = inhibition	outcome
COc1cc(-c2noc(C)c2C#CC2(O)CCCCC2)cc(OC)c1OC	inconclusive: 7.31 µM [falling, partial curve, poor fit]		
COc1cccc(NC(=O)CN(C)C(=O)c2ccc(N3CCCCC3)c([N+](=O)[O-])c2)c1	inconclusive: 0.116 µM [falling, full curve, poor fit]		
Fc1ccc(C[n+]2csc3ccccc32)cc1		inconclusive: 23.5%	
CCN1CCN(C(=O)CN(c2ccc(C)cc2)S(C)(=O)=O)CC1		inconclusive: -117%	
COc1ccc(-c2nc(-c3ccc(NC(=O)c4ccncc4)cc3)no2)cc1OC		inconclusive: -24.7%	
CCN1C(=S)N[C@@H](CCc2ccccc2)[C@H](C(=O)OC)[C@H]1C		inconclusive: -0.224%	
CC(C)CC(=O)NC(=S)Nc1cccc(NC(=O)c2ccccc2)c1		inconclusive: 20.6%	
CCCCC(=O)NCCNc1nc2c(c(=O)n(C)c(=O)n2C)n1Cc1ccc(F)cc1		inconclusive: 35.1%	
CSc1nc2ccsc2c(=O)n1-c1ccccc1		inconclusive: 6.64%	
CSCCC(N=C1NS(=O)(=O)c2ccccc21)C(=O)NCCc1ccccc1 (configuration not stated)	inconclusive: 0.731 µM [falling, single point]		
N#Cc1cc2c(=O)n3ccccc3nc2n(CCN2CCOCC2)c1=O		inconclusive: 42.6%	
CCOC(=O)Cc1nnc(NC(=O)COc2ccc(OC)cc2)s1	inconclusive: 0.0206 µM [falling, full curve, poor fit]		
Cc1ccc(Cl)cc1NC(=O)CON=C(N)c1ccccc1		inconclusive: 16.5%	
COc1ccc(C(=O)OC(C)C(=O)NC(C)CCc2ccccc2)c(OC)c1 (configuration not stated)	inconclusive: 29.1 µM [falling, single point]		
Cc1ccc(OCCN2CCN(CC(O)Cn3c4ccccc4c4ccccc43)CC2)cc1 (configuration not stated)	inconclusive: 16.4 µM [cytotoxic, partial curve]		
COc1ccc(NC(=O)CN2C(=O)CSC(C)C2=O)cc1 (configuration not stated)		inconclusive: -18.2% [at 9.22 µM]	
Cc1cc(C)cc(NC(=O)COC(=O)CN=C2NS(=O)(=O)c3ccccc32)c1	inconclusive: 0.0461 µM [activator, full curve, poor fit]		
O=C(COC(=O)COc1ccc(Cl)cc1Br)NC1CCCCCC1	inconclusive: 2.06 µM [falling, full curve, poor fit]		
COC(=O)CCCC(=O)N1CCC(CCC(=O)NC2CC2)CC1		inconclusive: 49.3%	
O=C(NCc1ccccc1C(F)(F)F)C1CCC(=O)N(CCCc2ccccc2)C1 (configuration not stated)		inconclusive: -14.8%	
Cc1nn(C)c(Oc2ccccc2)c1CCNS(=O)(=O)c1ccc(Cl)cc1		inconclusive: 44.3%	
CN(CC(=O)Nc1ccc(Cl)cc1)C(=O)C1=COCCO1		inconclusive: -38.3%	
Clc1ccc2c(NCc3cccs3)ncnc2c1	inconclusive: 29.1 µM [falling, single point]		
O=c1cc(N2CCCCC2)c(-c2ccccc2)nn1Cc1ccccc1Cl		inconclusive: 32.2%	
Clc1ccc(-n2ncc3c(NCC4CCCO4)ncnc32)cc1 (configuration not stated)	inconclusive: 20.6 µM [falling, single point]		
CC1=C(C(=O)OC2CCCCC2)C(c2ccc(C)o2)C2=C(CCCC2=O)N1 (configuration not stated)		inconclusive: -2.83%	

A second format for part of the listing above.

| SMILES | Potency | lipid storage change, negative = inhibition | outcome |
| --- | --- | --- | --- |
| CSc1nc2ccsc2c(=O)n1-c1ccccc1 |  | inconclusive: 6.64% |  |
| CC1=C(C(=O)OC2CCCCC2)C(c2ccc(C)o2)C2=C(CCCC2=O)N1 (configuration not stated) |  | inconclusive: -2.83% |  |

(listing goes on)

SMILES	Potency	lipid storage change, negative = inhibition	outcome
Cc1cccc(N2CCN(C(=O)CN3C(=O)C4CC=CCC4C3=O)CC2)c1C (configuration not stated)		inconclusive: 38.6%	
Cc1ccc2c(c1)COc1c3ccc(C(=O)N4CCCCC4)cc3nn1-2		inactive: -0.0831%	
COc1cc2nc(=S)n3[nH]c(CCn4nc(C)cc4C)nc3c2cc1OC		inconclusive: -18%	
CCOC(=O)N1CCN(CC(O)COc2c(C)cccc2C)CC1 (configuration not stated)		inconclusive: -35.7%	
CC1CCN(C(=O)CSc2nnc3c(n2)[nH]c2ccc(F)cc23)CC1		inconclusive: 89.2%	
CC(=O)Nc1ccc(C(=O)NC2CCCC2)cc1		inconclusive: -40.6%	
O=C(N1CCOCC1)N1CCN(S(=O)(=O)c2ccc(Cl)cc2)CC1	inconclusive: 1.64 µM [activator, partial curve]		
CN(C)C(=O)CCCc1nc(-c2ccc(Cl)cc2)no1	inconclusive: 16.4 µM [activator, partial curve]		
Cc1cc(N)ccc1NC(=O)CN1CCCC1		inconclusive: -51.8%	
O=C(Cc1ccccc1)NN1C(=O)C2C(C1=O)C1C=CC2C12CC2 (configuration not stated)		inconclusive: 11.4%	
c1cncc(-c2cn(C[C@H]3CC[C@@H]([C@@H]4CC[C@H](Cn5cc(-c6cccnc6)nn5)O4)O3)nn2)c1	active: 14.6 µM		
CCOc1ccc(C(=O)NCc2cccs2)cc1		inconclusive: -11.2%	
Cc1ccc(-c2cc(C(=O)NCCCn3ccnc3)no2)cc1		inconclusive: 21.1%	
Cc1nn(-c2ccccc2)c(C)c1C(=O)OCC(=O)Nc1ccccc1C(F)(F)F		inconclusive: -4.39%	
COc1ccc(NC(=O)/C=C/c2ccc(S(=O)(=O)N3CCOCC3)cc2)cc1	inconclusive: 18.4 µM [activator, single point]		
COc1ccc(C(=O)NC2CCc3ccccc32)cc1OC1CCN(C(C)=O)CC1 (configuration not stated)		inconclusive: -64.9%	
Cc1ccc2c(c1)C=CC(C)N2C(=O)c1ccccc1 (configuration not stated)		inconclusive: 35.6%	
O=C(NCc1ccco1)Nc1cccc([N+](=O)[O-])c1		inconclusive: -1.67%	
COc1cc(OC)cc(-c2c(-c3cccs3)c3cc(-c4cccc5[nH]ccc45)ccc3n2C)c1	inconclusive: 1.03 µM [activator, single point]		
Cc1ccc(NC(=O)C2=CCN(S(=O)(=O)c3ccc(F)cc3)CC2)cc1		inconclusive: 23.4%	
CC(Oc1cc(C(F)(F)F)cc(C(F)(F)F)c1)C(=O)NC(N)=O (configuration not stated)		inconclusive: 120%	
CCOc1cccc(NC(=O)c2cnccc2C(F)(F)F)c1		inconclusive: -21%	
COc1ccc(C(=O)NN2C(=S)N(c3ccc(OC)cc3)C(=O)C2CC(N)=O)cc1 (configuration not stated)		inconclusive: -3.72%	
CCOc1ccc(Cc2c(Cl)nc(SC)nc2OC)cc1		inconclusive: 35.4%	
COc1cccc(NC(=O)CN(C)C(=O)Cc2cccc3ccccc23)c1		inconclusive: 5.29%	
CCCCn1c(Cn2nc(C(=O)O)c3ccccc3c2=O)nc2cc(S(N)(=O)=O)ccc21		inconclusive: -91.1%	

3 compounds drawn at random from those above:
SMILES	Potency	lipid storage change, negative = inhibition	outcome
O=C(Cc1ccccc1)NN1C(=O)C2C(C1=O)C1C=CC2C12CC2 (configuration not stated)		inconclusive: 11.4%	
CC(Oc1cc(C(F)(F)F)cc(C(F)(F)F)c1)C(=O)NC(N)=O (configuration not stated)		inconclusive: 120%	
COc1ccc(C(=O)NC2CCc3ccccc32)cc1OC1CCN(C(C)=O)CC1 (configuration not stated)		inconclusive: -64.9%	

Later entries

SMILES	Potency	lipid storage change, negative = inhibition	outcome
Cc1ccc(Cn2c(SC(C)C(N)=O)nc3ccccc3c2=O)cc1 (configuration not stated)		inconclusive: 14.9%	
Cc1ccc(/C=C/S(=O)(=O)NCC(=O)OCC(=O)Nc2c(F)cccc2F)cc1		inconclusive	
CCNC(=O)c1ccccc1NC(=O)c1cccc(S(=O)(=O)N2CCC(C)CC2)c1		inconclusive: 41.8%	
Cc1ccc(C(=O)NC(=S)Nc2cccc3nsnc23)cc1		inconclusive: 18.6%	
CC(C)C(NC(=O)c1ccc(C(C)(C)C)cc1)C(=O)OCC(=O)NC(=O)Cc1ccccc1 (configuration not stated)		inconclusive: -20.4%	
CC1CCN(S(=O)(=O)c2cccc(C(=O)N(C)C3CCS(=O)(=O)C3)c2)CC1 (configuration not stated)		inconclusive: -14.1%	
Cc1ccc(NC(=O)c2cc(S(=O)(=O)N3CCOCC3)ccc2F)c(C)c1		inconclusive: -7.64%	
CN(c1ccccc1)S(=O)(=O)c1ccc(C(=O)OCC(=O)N2CCOCC2)cc1			inactive [at 46.1 µM]
Cn1c(C=O)c(-c2ccc3c(c2)OCCO3)c2ccccc21		inconclusive: 18.1%	
Cn1c(Cn2c(=O)sc3ccccc32)nnc1SCc1ccccc1F	inconclusive: 9.2 µM [activator, partial curve]		
Cc1cccc(NC(=O)Nc2ccc(Cl)cc2)n1	inconclusive: 6.51 µM [falling, single point]		
Cc1oc2cc(O)ccc2c(=O)c1-c1cnn(-c2ccccc2)c1		inconclusive: 42.4%	
CCOC(=O)C1CCCN(C(=O)CCc2ccccc2)C1 (configuration not stated)		inconclusive: 61.7%	
CCc1ccc(NC(=O)CCc2nnc3ccc(N4CCC5(CC4)OCCO5)nn23)cc1	inconclusive: 20.6 µM [falling, single point]		
O=C(CCc1nnc2ccc(N3CCC4(CC3)OCCO4)nn12)Nc1ccc(F)cc1	inconclusive: 29.1 µM [falling, single point]		
Cc1cc(N(CN2CCCC2=O)C(=O)c2ccccc2)no1		inconclusive: -5.47%	
Cn1c(CNC(=O)c2ccc3c(c2)OCO3)nnc1SCC(=O)Nc1ccccc1F			inactive [at 46.1 µM]
CCOc1ccc(OCCC(=O)N2CCc3cc(OC)c(OC)cc3C2)cc1	inconclusive: 0.58 µM [activator, single point]		
CCOc1cc(C(=O)NC2CC(C)(C)NC(C)(C)C2)cc(OCC)c1OCC	inconclusive: 6.51 µM [falling, single point]		
CC1(C)NC(=O)N(CC(=O)OCC(=O)Nc2sccc2C#N)C1=O	inconclusive: 29.1 µM [falling, single point]		
O=C(Nc1ccc(Oc2ccc(NC(=O)c3ccco3)c(NC(=O)c3ccco3)c2)cc1)c1ccco1	inconclusive: 0.58 µM [activator, single point]		
CC(C)(C)C1CCc2c(sc(N)c2C(N)=O)C1 (configuration not stated)		inconclusive: -3.51%	
COc1ccc(C(=O)C2CCCN(C(=O)CCc3ccccn3)C2)c(C)c1 (configuration not stated)		inconclusive: 17.6%	
COc1ccc(CCNC(=O)CS(=O)Cc2nc(-c3ccc(C)cc3)oc2C)cc1OC (configuration not stated)	inconclusive: 0.92 µM [activator, full curve, poor fit]		
CCN(CC)S(=O)(=O)c1cccc(NC(=O)COC(=O)c2cccs2)c1		inconclusive: -22.2%	
